No constants are given. Whether binding was seen depends on the method and setting. In cells and extracts the contact can be indirect. These calls come from enrichment with a bait or labelling near it, and not all partners need be listed.
T1: TAR-RNA binding protein 2 (human) (UniProt Q15633)
T1 sequence: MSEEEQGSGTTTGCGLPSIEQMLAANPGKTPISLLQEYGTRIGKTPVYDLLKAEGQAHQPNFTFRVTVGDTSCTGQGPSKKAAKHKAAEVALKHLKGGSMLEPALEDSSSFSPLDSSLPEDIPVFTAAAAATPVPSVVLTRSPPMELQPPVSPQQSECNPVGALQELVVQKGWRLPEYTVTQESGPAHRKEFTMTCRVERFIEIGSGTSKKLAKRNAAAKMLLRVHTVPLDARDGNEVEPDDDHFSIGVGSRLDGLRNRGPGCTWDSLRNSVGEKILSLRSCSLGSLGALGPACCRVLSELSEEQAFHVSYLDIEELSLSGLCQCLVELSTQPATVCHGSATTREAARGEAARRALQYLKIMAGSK

By UniProt entry, the sequences of proteins in these tests, tags left out.
UniProt Q8NE71: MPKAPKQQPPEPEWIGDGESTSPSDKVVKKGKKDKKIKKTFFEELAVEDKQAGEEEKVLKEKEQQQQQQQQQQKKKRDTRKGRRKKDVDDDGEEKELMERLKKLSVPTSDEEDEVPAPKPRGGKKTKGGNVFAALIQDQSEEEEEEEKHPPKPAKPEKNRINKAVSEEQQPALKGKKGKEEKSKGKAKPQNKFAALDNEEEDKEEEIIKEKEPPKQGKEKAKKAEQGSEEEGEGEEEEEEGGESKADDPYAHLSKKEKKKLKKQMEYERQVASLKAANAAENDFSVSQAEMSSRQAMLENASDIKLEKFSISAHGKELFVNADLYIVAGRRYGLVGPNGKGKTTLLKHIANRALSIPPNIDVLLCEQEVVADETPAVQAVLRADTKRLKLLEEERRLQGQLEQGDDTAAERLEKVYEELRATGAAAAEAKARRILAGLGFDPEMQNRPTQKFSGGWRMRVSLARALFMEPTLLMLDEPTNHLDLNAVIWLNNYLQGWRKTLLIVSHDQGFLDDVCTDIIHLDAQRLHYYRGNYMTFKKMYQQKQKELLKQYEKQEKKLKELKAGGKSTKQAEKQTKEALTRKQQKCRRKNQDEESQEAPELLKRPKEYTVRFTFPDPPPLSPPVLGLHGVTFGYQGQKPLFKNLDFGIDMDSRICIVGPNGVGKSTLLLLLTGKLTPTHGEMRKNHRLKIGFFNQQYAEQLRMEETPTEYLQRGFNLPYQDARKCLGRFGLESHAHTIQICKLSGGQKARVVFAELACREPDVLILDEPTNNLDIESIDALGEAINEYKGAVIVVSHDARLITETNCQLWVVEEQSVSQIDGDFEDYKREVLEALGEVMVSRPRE
UniProt Q14839: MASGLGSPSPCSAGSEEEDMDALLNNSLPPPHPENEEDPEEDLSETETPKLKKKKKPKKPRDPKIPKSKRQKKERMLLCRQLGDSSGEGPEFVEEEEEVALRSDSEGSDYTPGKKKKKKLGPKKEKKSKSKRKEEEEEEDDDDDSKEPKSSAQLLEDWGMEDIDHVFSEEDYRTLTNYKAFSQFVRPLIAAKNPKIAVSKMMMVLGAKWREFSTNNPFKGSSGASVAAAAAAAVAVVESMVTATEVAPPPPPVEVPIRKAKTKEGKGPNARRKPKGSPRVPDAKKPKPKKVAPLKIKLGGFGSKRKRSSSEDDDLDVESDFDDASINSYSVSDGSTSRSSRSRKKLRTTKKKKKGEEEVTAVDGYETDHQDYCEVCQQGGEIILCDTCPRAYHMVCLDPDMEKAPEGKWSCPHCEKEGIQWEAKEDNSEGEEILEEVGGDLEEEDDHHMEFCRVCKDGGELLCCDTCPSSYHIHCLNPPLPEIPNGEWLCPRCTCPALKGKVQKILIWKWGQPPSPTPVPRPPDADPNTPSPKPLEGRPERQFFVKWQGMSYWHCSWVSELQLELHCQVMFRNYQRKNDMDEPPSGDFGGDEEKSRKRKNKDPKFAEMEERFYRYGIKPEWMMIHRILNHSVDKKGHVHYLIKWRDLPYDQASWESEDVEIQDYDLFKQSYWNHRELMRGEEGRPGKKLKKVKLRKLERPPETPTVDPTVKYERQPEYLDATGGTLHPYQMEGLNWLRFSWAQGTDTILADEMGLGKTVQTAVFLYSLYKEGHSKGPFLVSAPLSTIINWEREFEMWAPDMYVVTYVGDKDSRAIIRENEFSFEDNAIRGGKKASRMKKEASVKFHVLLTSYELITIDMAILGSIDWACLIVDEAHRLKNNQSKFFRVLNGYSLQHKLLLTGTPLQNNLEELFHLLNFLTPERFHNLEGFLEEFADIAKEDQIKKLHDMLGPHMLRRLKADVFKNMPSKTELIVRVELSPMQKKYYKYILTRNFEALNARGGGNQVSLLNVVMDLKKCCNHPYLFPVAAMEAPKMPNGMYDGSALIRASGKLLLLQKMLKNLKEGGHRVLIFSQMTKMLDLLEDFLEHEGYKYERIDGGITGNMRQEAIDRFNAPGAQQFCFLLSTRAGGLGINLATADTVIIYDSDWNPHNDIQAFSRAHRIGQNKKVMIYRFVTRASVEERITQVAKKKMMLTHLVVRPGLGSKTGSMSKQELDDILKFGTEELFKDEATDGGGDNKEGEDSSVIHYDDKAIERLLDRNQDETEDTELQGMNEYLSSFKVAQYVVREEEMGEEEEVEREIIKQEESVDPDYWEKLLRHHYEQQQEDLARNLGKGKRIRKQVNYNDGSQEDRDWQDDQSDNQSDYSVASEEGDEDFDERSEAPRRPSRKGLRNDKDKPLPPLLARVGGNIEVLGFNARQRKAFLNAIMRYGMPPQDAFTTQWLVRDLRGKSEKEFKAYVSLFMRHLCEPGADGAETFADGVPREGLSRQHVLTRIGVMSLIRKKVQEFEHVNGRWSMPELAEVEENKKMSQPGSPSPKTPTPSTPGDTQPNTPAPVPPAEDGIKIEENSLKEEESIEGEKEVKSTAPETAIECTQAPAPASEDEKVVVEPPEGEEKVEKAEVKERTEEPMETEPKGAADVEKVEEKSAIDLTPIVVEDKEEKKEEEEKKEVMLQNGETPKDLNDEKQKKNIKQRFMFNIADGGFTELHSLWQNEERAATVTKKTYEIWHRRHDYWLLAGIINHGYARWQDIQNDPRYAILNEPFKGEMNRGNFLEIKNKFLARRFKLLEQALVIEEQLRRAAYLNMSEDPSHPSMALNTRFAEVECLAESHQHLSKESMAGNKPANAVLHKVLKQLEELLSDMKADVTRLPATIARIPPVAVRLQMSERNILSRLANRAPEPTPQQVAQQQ
UniProt P17844: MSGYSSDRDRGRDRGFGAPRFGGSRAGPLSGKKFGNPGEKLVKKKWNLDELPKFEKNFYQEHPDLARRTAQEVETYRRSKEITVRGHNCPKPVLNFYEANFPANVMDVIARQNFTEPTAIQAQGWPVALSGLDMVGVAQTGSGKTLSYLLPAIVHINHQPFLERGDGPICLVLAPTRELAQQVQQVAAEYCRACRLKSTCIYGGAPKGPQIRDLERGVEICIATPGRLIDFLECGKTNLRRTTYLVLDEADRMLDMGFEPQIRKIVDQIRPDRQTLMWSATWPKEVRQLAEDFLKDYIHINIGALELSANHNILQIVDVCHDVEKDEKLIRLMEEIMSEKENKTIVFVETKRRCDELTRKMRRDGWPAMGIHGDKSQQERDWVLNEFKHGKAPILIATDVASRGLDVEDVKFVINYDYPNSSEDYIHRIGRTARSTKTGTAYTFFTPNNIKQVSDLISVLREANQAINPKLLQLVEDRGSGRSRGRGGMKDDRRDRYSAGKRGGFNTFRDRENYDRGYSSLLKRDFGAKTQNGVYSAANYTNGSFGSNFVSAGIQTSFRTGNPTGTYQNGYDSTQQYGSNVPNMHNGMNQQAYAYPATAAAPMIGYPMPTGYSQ
UniProt Q92841: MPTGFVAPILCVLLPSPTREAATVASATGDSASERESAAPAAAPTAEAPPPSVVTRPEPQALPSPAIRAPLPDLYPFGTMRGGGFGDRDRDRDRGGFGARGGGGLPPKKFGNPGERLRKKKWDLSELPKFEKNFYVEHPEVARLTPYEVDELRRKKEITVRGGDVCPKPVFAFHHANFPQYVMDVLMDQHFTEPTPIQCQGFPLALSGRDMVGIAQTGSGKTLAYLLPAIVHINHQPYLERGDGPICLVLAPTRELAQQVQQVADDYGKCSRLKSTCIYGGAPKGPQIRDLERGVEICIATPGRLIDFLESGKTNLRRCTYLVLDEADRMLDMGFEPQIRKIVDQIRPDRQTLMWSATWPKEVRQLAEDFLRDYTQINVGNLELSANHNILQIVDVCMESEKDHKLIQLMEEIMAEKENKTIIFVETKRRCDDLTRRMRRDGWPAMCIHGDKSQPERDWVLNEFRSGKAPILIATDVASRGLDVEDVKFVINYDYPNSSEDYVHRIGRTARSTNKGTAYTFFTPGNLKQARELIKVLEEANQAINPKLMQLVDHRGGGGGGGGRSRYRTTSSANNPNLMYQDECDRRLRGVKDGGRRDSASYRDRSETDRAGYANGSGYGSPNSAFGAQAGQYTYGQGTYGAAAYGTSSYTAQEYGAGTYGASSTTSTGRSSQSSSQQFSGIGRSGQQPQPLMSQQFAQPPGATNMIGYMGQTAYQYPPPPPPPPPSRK
UniProt P16403: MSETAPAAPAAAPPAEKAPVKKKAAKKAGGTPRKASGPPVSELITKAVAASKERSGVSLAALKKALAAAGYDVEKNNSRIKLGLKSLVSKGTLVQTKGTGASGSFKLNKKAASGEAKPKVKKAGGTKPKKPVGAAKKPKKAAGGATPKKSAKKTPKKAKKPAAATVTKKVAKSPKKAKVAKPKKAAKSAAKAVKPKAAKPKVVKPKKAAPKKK
UniProt Q99729: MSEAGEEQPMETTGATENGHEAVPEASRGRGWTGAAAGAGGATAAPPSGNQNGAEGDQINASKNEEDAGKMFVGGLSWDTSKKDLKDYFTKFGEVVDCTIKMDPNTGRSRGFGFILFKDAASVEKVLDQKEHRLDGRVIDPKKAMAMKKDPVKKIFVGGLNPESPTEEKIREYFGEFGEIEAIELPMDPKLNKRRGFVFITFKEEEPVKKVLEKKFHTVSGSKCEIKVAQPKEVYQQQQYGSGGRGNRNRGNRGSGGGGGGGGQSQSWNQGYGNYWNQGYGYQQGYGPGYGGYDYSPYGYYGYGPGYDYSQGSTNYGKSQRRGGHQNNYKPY
UniProt P11940: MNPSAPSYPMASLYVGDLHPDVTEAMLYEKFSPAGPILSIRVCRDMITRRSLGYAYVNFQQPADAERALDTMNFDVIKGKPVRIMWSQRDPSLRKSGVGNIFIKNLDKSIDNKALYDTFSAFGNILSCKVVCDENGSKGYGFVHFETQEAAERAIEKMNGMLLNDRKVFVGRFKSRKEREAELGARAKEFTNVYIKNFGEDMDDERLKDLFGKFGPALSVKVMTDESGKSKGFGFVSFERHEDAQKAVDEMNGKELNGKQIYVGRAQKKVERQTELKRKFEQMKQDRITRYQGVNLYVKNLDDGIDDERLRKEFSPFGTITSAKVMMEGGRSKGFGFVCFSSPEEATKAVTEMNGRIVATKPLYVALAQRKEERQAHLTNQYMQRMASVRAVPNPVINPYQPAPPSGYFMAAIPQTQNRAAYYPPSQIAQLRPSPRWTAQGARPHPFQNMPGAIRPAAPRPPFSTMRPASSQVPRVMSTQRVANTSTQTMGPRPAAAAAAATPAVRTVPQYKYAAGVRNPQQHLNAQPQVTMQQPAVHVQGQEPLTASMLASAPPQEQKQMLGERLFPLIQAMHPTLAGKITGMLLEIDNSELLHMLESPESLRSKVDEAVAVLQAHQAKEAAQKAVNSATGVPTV
UniProt P26599: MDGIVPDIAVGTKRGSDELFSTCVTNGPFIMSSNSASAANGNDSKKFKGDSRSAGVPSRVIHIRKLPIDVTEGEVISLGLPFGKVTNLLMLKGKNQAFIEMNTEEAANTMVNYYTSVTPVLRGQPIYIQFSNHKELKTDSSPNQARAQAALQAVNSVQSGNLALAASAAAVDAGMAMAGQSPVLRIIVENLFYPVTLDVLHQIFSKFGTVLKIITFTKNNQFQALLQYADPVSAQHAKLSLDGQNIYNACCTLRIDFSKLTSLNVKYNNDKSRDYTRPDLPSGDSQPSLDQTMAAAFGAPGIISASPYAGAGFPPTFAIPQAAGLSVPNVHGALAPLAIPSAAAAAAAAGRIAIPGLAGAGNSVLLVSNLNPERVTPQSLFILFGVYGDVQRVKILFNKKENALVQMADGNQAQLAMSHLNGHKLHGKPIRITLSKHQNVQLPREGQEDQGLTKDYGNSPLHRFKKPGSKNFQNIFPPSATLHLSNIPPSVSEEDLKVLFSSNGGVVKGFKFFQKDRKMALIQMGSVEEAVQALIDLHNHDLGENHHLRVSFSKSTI
UniProt P61224: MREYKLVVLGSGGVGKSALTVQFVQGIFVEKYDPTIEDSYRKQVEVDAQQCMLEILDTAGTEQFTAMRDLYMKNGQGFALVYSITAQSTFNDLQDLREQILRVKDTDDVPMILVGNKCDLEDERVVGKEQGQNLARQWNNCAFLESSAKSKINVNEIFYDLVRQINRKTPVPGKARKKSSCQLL
UniProt Q07955: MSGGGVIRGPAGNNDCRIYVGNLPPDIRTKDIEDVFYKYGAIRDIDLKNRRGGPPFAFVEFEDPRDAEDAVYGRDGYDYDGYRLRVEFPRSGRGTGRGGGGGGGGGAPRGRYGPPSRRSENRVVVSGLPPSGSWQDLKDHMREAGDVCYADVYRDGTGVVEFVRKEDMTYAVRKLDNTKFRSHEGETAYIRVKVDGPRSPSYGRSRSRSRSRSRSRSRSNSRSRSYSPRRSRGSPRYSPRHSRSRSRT
UniProt Q9Y651: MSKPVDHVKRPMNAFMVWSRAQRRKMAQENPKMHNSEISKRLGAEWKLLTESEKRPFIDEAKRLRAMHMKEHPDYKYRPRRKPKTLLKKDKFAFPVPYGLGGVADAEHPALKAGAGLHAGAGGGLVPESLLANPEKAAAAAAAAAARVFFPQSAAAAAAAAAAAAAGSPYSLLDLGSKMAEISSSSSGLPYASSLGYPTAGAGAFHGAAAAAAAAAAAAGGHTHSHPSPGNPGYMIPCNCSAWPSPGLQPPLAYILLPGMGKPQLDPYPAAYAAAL


Target: T1, TAR-RNA binding protein 2 (human)
Assay: affinity purification with mass spectrometry; lysates of HeLa cells overexpressing Flag-TRBP immunoprecipitated with monoclonal anti-Flag agarose, eluted with 3X Flag polypeptides, SDS gel, fifteen Coomassie bands excised and analysed by LC-MS/MS; identifications of the mock-transfected sample subtracted

| binding | Molecule |
| --- | --- |
| binds | ABCF1 (from UniProt Q8NE71 1-845) |
| binds | AKAP13 (from UniProt Q12802 1-2813) |
| binds | ATP5B (from UniProt P06576 48-529) |
| binds | CDC5L (from UniProt Q99459 1-802) |
| binds | CHD4 (from UniProt Q14839 1-1912) |
| binds | DBN1 (from UniProt Q16643 1-649) |
| binds | DDX5 (from UniProt P17844 1-614) |
| binds | DDX17 (from UniProt Q92841 1-729) |
| binds | DDX54 (from UniProt Q8TDD1 1-881) |
| binds | DIDO1 (from UniProt Q9BTC0 1-2240) |
| binds | DNAJA3 (human (endogenous in HeLa)) |
| binds | EEF1A2 (from UniProt Q05639 1-463) |
| binds | EIF2AK2 (from UniProt P19525 1-551) |
| binds | EIF2S1 (from UniProt P05198 1-315) |
| binds | HIST1H1C (from UniProt P16403 1-213) |
| binds | HMGA1 (from UniProt P17096 1-107) |
| binds | HNRPAB (from UniProt Q99729 1-332) |
| binds | PABPC1 (from UniProt P11940 1-636) |
| binds | PARP1 (from UniProt P09874 1-1014) |

| binding | Molecule |
| --- | --- |
| binds | PPP1R9B (from UniProt Q96SB3 1-817) |
| binds | PRMT5 (from UniProt O14744 1-637) |
| binds | PTBP1 (from UniProt P26599 1-557) |
| binds | RAP1B (from UniProt P61224 1-184) |
| binds | RBBP4 (from UniProt Q09028 1-425) |
| binds | SFRS1 (from UniProt Q07955 1-248) |
| binds | SLC2A1 (from UniProt P11166 1-492) |
| binds | SNRPD3 (from UniProt P62318 1-126) |
| binds | SOX21 (from UniProt Q9Y651 1-276) |
| binds | SYNCRIP (from UniProt O60506 1-623) |
| binds | TOP1 (from UniProt P11387 1-765) |
| binds | DCD (protein, UniProt P81605 20-110) YDPEAASAPGSGNPCHEASAAQKENAGEDPGLARQAPKPRKQRSSLLEKGLDGAKKAVGGLGKLGKDAVEDLESVGKGAVHDVKDVLDSVL |
| binds | SART1 (protein, UniProt O43290 1-800) MGSSKKHRGEKEAAGTTAAAGTGGATEQPPRHREHKKHKHRSGGSGGSGGERRKRSRERGGERGSGRRGAEAEARSSTHGRERSQAEPSERRVKREKRDDGYEAAASSKTSSGDASSLSIEETNKLRAKLGLKPLEVNAIKKEAGTKEEPVTADVINPMALRQREELREKLAAAKEKRLLNQKLGKIKTLGEDDPWLDDTAAWIERSRQLQKEKDLAEKRAKLLEEMDQEFGVSTLVEEEFGQRRQDLYSARDLQGLTVEHAIDSFREGETMILTLKDKGVLQEEEDVLVNVNLVDKERAEKNVELRKKKPDYLPYAEDESVDDLAQQKPRSILSKYDEELEGERPHSFRLEQGGTADGLRERELEEIRAKLRLQAQSLSTVGPRLASEYLTPEEMVTFKKTKRRVKKIRKKEKEVVVRADDLLPLGDQTQDGDFGSRLRGRGRRRVSEVEEEKEPVPQPLPSDDTRVENMDISDEEEGGAPPPGSPQVLEEDEAELELQKQLEKGRRLRQLQQLQQLRDSGEKVVEIVKKLESRQRGWEEDEDPERKGAIVFNATSEFCRTLGEIPTYGLAGNREEQEELMDFERDEERSANGGSESDGEENIGWSTVNLDEEKQQQDFSASSTTILDEEPIVNRGLAAALLLCQNKGLLETTVQKVARVKAPNKSLPSAVYCIEDKMAIDDKYSRREEYRGFTQDFKEKDGYKPDVKIEYVDETGRKLTPKEAFRQLSHRFHGKGSGKMKTERRMKKLDEEALLKKMSSSDTPLGTVALLQEKQKAQKTPYIVLSGSGKSMNANTITK |
| binds | ATP5F1 (protein, UniProt P24539 43-256) PVPPLPEYGGKVRYGLIPEEFFQFLYPKTGVTGPYVLGTGLILYALSKEIYVISAETFTALSVLGVMVYGIKKYGPFVADFADKLNEQKLAQLEEAKQASIQHIQNAIDTEKSQQALVQKRHYLFDVQRNNIAMALEVTYRERLYRVYKEVKNRLDYHISVQNMMRRKEQEHMINWVEKHVVQSISTQQEKETIAKCIADLKLLAKKAQAQPVM |
| binds | XRN2 (protein, UniProt Q9H0D6 1-950) MGVPAFFRWLSRKYPSIIVNCVEEKPKECNGVKIPVDASKPNPNDVEFDNLYLDMNGIIHPCTHPEDKPAPKNEDEMMVAIFEYIDRLFSIVRPRRLLYMAIDGVAPRAKMNQQRSRRFRASKEGMEAAVEKQRVREEILAKGGFLPPEEIKERFDSNCITPGTEFMDNLAKCLRYYIADRLNNDPGWKNLTVILSDASAPGEGEHKIMDYIRRQRAQPNHDPNTHHCLCGADADLIMLGLATHEPNFTIIREEFKPNKPKPCGLCNQFGHEVKDCEGLPREKKGKHDELADSLPCAEGEFIFLRLNVLREYLERELTMASLPFTFDVERSIDDWVFMCFFVGNDFLPHLPSLEIRENAIDRLVNIYKNVVHKTGGYLTESGYVNLQRVQMIMLAVGEVEDSIFKKRKDDEDSFRRRQKEKRKRMKRDQPAFTPSGILTPHALGSRNSPGSQVASNPRQAAYEMRMQNNSSPSISPNTSFTSDGSPSPLGGIKRKAEDSDSEPEPEDNVRLWEAGWKQRYYKNKFDVDAADEKFRRKVVQSYVEGLCWVLRYYYQGCASWKWYYPFHYAPFASDFEGIADMPSDFEKGTKPFKPLEQLMGVFPAASGNFLPPSWRKLMSDPDSSIIDFYPEDFAIDLNGKKYAWQGVALLPFVDERRLRAALEEVYPDLTPEETRRNSLGGDVLFVGKHHPLHDFILELYQTGSTEPVEVPPELCHGIQGKFSLDEEAILPDQIVCSPVPMLRDLTQNTVVSINFKDPQFAEDYIFKAVMLPGARKPAAVLKPSDWEKSSNGRQWKPQLGFNRDRRPVHLDQAAFRTLGHVMPRGSGTGIYSNAAPPPVTYQGNLYRPLLRGQAQIPKLMSNMRPQDSWRGPPPLFQQQRFDRGVGAEPLLPWNRMLQTQNAAFQPNQYQMLAGPGGYPPRRDDRGGRQGYPREGRKYPLPPPSGRYNWN |
| binds | DEK (protein, UniProt P35659 1-375) MSASAPAAEGEGTPTQPASEKEPEMPGPREESEEEEDEDDEEEEEEEKEKSLIVEGKREKKKVERLTMQVSSLQREPFTIAQGKGQKLCEIERIHFFLSKKKTDELRNLHKLLYNRPGTVSSLKKNVGQFSGFPFEKGSVQYKKKEEMLKKFRNAMLKSICEVLDLERSGVNSELVKRILNFLMHPKPSGKPLPKSKKTCSKGSKKERNSSGMARKAKRTKCPEILSDESSSDEDEKKNKEESSDDEDKESEEEPPKKTAKREKPKQKATSKSKKSVKSANVKKADSSTTKKNQNSSKKESESEDSSDDEPLIKKLKKPPTDEELKETIKKLLASANLEEVTMKQICKKVYENYPTYDLTERKDFIKTTVKELIS |
| binds | HNRPM (protein, UniProt P52272 1-730) MAAGVEAAAEVAATEIKMEEESGAPGVPSGNGAPGPKGEGERPAQNEKRKEKNIKRGGNRFEPYANPTKRYRAFITNIPFDVKWQSLKDLVKEKVGEVTYVELLMDAEGKSRGCAVVEFKMEESMKKAAEVLNKHSLSGRPLKVKEDPDGEHARRAMQKVMATTGGMGMGPGGPGMITIPPSILNNPNIPNEIIHALQAGRLGSTVFVANLDYKVGWKKLKEVFSMAGVVVRADILEDKDGKSRGIGTVTFEQSIEAVQAISMFNGQLLFDRPMHVKMDERALPKGDFFPPERPQQLPHGLGGIGMGLGPGGQPIDANHLNKGIGMGNIGPAGMGMEGIGFGINKMGGMEGPFGGGMENMGRFGSGMNMGRINEILSNALKRGEIIAKQGGGGGGGSVPGIERMGPGIDRLGGAGMERMGAGLGHGMDRVGSEIERMGLVMDRMGSVERMGSGIERMGPLGLDHMASSIERMGQTMERIGSGVERMGAGMGFGLERMAAPIDRVGQTIERMGSGVERMGPAIERMGLSMERMVPAGMGAGLERMGPVMDRMATGLERMGANNLERMGLERMGANSLERMGLERMGANSLERMGPAMGPALGAGIERMGLAMGGGGGASFDRAIEMERGNFGGSFAGSFGGAGGHAPGVARKACQIFVRNLPFDFTWKMLKDKFNECGHVLYADIKMENGKSKGCGVVKFESPEVAERACRMMNGMKLSGREIDVRIDRNA |
| binds | U2AF1 (protein, UniProt Q01081 1-240) MAEYLASIFGTEKDKVNCSFYFKIGACRHGDRCSRLHNKPTFSQTIALLNIYRNPQNSSQSADGLRCAVSDVEMQEHYDEFFEEVFTEMEEKYGEVEEMNVCDNLGDHLVGNVYVKFRREEDAEKAVIDLNNRWFNGQPIHAELSPVTDFREACCRQYEMGECTRGGFCNFMHLKPISRELRRELYGRRRKKHRSRSRSRERRSRSRDRGRGGGGGGGGGGGGRERDRRRSRDRERSGRF |
| binds | CCT2 (protein, UniProt P78371 1-535) MASLSLAPVNIFKAGADEERAETARLTSFIGAIAIGDLVKSTLGPKGMDKILLSSGRDASLMVTNDGATILKNIGVDNPAAKVLVDMSRVQDDEVGDGTTSVTVLAAELLREAESLIAKKIHPQTIIAGWREATKAAREALLSSAVDHGSDEVKFRQDLMNIAGTTLSSKLLTHHKDHFTKLAVEAVLRLKGSGNLEAIHIIKKLGGSLADSYLDEGFLLDKKIGVNQPKRIENAKILIANTGMDTDKIKIFGSRVRVDSTAKVAEIEHAEKEKMKEKVERILKHGINCFINRQLIYNYPEQLFGAAGVMAIEHADFAGVERLALVTGGEIASTFDHPELVKLGSCKLIEEVMIGEDKLIHFSGVALGEACTIVLRGATQQILDEAERSLHDALCVLAQTVKDSRTVYGGGCSEMLMAHAVTQLANRTPGKEAVAMESYAKALRMLPTIIADNAGYDSADLVAQLRAAHSEGNTTAGLDMREGTIGDMAILGITESFQVKRQVLLSAAEAAEVILRVDNIIKAAPRKRVPDHHPC |

Source: PMC3125213
